In article PMC7316729, “The cryo-EM structure of the bacterial flagellum cap complex suggests a molecular mechanism for filament elongation” (Nature Communications, 2020) one finds binding data, which are given here for one molecule.

These are yes or no findings as the source states them, for the method shown. Some results given as binding are weak or reduced against the parent protein; the word gives no strength. Where a sequence is shown, tags or fusion partners need not be part of it.

The target in the assay is FliD from Campylobacter jejuni, full length (flagellum cap protein) (C. jejuni) (UniProt Q9PHW6). The assay can be described thus: negative-stain TEM with 2D classification; purified protein on carbon-coated copper grids, 0.75% uranyl formate; ~3500 particles for FliDsm and 2700 for FliDpa, 2D class averages; both purified.

B1: FliD from Campylobacter jejuni, full length (flagellum cap protein) (natural protein)
chain: MAFGSLSSLGFGSGVLTQDTIDKLKEAEQKARIDPYTKKIEENTTKQKDLTEIKTKLLSFQTAVSSLADATVFAKRKVVGSISDNPPASLTVNSGVALQSMNINVTQLAQKDVYQSKGLANDGGFVNAQLNGTADLTFFSNGKEYTVTVDKNTTYRDLADKINEASGGEIVAKIVNTGEKGTPYRLTLTSKETGEDSAISFYAGKKDSNGKYQKDINAEKIFDDLGWGLDVSASIDPDKDKKGYGIKDASLHIQTAQNAEFTLDGIKMFRSSNTVTDLGVGMTLTLNKTGEINFDVQQDFEGVTKAMQDLVDAYNDLVTNLNAATDYNSETGTKGTLQGISEVNSIRSSILADLFDSQVVDGTTEDANGNKVNTKVMLSMQDFGLSLNDAGTLSFDSSKFEQKVKEDPDSTESFFSNITKYEDINHTGEVIKTGSLSKYLNSNGGNTNGLEFKPGDFTIVFNNQTYDLSKNSDGTNFKLTGKTEEELLQNLANHINSKGIEGLKVKVESYNQNNVTGFRLNFSGDGSSDFSIKGDANILKELGLSDVNITSKPIEGKGIFSKLKATLQEMTGKDGSITKYDESLTNDIKSLNTSKDSTQAMIDTRYDTMANQWLQYESILNKLNQQLNTVTNMINAANNSNN
notes: FliD (flagellar cap protein, HAP2) of Campylobacter jejuni; gene codon-optimised for E. coli, synthesised and sub-cloned into pET28a; printed numbering runs to residue 643 (C-terminus 577-643); The D4 domain was not built in the model 6SIH; also called FliDcj; HAP2; source: E. coli BL21-CodonPlus(DE3)-RIL, purified (Ni-NTA, Superdex 200 SEC)
For the molecule B1, the binding result is recorded as “binds”.
